From publication PMC4459819
These are yes or no findings as the source states them, for the method shown. Binding seen in cells or lysates may run through a third protein. Some entries that bind do so weakly or less than the wild type.

Protein sequences, listed by entry. Tags and fused reporters are not part of them. Lines headed by an entry give the natural chain unless they say otherwise; changes in a name come on top. Chains listed by the source or under a name are the forms on record and can include a tag or linker. Residues count along the entry.
UniProt Q96A56: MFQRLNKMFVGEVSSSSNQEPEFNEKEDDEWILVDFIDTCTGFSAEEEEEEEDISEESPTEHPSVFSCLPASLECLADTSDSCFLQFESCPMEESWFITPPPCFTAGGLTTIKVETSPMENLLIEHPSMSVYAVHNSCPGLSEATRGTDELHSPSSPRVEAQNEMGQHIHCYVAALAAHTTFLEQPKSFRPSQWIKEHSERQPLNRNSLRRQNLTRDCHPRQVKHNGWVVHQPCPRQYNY
TP53INP1α-NTAP (tumor protein 53-induced nuclear protein 1, isoform α) (Q96A56, form named): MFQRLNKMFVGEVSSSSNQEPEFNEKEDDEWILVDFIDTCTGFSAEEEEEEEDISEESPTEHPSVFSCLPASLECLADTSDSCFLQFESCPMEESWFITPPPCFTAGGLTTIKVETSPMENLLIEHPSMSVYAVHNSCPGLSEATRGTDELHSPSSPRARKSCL
UniProt O60260: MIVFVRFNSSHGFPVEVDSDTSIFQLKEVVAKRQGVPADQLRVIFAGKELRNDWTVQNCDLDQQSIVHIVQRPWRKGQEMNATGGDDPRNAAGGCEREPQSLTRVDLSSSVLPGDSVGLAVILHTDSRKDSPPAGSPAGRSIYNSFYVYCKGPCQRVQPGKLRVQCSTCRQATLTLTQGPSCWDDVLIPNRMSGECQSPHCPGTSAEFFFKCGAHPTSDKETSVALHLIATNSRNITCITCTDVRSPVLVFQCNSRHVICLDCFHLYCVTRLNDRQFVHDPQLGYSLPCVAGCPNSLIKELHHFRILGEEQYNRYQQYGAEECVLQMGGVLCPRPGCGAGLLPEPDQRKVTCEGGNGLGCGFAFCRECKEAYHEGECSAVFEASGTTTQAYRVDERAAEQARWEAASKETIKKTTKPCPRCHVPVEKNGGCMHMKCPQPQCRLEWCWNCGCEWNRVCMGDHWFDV
UniProt Q9BXM7, residues 78-581: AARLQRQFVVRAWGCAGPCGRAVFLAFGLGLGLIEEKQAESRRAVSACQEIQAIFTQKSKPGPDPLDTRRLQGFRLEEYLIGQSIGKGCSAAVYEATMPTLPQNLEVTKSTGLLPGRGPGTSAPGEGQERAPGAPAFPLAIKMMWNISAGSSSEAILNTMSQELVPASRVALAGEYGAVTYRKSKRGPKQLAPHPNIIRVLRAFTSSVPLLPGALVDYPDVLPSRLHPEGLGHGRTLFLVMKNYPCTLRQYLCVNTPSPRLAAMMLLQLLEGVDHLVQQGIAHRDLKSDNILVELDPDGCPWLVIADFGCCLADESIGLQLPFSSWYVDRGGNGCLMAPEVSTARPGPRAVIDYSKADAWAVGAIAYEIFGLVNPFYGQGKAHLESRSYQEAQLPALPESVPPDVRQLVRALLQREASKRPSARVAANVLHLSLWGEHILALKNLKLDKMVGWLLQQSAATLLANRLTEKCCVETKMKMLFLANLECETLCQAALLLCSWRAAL

Key:
[1] = target: TP53INP1β-NTAP (tumor protein 53-induced nuclear protein 1, isoform β) (human) (UniProt Q96A56); assay: co-IP; HEK293T cells transfected 24 h with TP53INP1α- or β-NTAP vector or empty pNTAP vector; cells lysed; protein complexes purified on streptavidin-containing resin (InterPlay Mammalian TAP Purification Kit); SDS-PAGE and immunoblot for PINK1, PARKIN, BNIP3, BNIP3L/NIX
[2] = target: TP53INP1α-NTAP (tumor protein 53-induced nuclear protein 1, isoform α) (human) (UniProt Q96A56); assay: as above

binding [1]	binding [2]	Substance
binds	binds	PARKIN (from UniProt O60260 1-465)
binds	binds	PINK1 (from UniProt Q9BXM7 78-581)
